Consider 58 compounds from PubChem BioAssay AID1671190 (National Center for Advancing Translational Sciences (NCATS), 2021).

Sequences of proteins named here, by UniProt entry; tags and fusion partners are left off. A change or cut given only in a name is not applied to a line headed by its entry.
UniProt P18054: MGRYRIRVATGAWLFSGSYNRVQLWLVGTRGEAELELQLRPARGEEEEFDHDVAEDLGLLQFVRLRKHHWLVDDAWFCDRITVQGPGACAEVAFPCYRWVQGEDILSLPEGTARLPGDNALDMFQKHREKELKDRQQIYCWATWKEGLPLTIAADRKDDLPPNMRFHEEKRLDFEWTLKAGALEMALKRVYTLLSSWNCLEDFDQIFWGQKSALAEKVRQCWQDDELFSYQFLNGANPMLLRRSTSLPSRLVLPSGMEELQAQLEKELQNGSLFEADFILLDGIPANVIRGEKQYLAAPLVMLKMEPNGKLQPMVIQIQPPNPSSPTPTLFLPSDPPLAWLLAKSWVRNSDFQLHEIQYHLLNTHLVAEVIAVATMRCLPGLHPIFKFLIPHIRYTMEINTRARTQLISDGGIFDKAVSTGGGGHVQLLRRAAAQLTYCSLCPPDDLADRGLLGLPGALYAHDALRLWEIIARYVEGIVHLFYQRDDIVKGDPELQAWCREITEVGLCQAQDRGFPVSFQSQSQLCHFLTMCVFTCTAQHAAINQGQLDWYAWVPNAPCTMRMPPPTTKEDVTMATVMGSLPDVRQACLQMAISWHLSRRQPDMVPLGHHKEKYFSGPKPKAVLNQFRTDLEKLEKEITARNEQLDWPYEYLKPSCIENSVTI

“And” between values parts separate entries of the source, which are not always exact repeats. Equal values may be shown once. The whole screen tested about 580,000 compounds, of which about 6,100 (1.1%) were called active. Not shown: some 15% with an inconclusive outcome. The call rests on the fitted dose curve; in most records, active means well fitted inhibition curve with a large enough effect; inconclusive means small, poorly fitted or top-dose-only effect, or another doubt; inactive means no such curve, though single readings can be large or run the other way. Only a part is listed here, and it is no random draw. Where no call is shown, the source filed none.
On the % scale 0 is the no-effect control and ±100 the full control effect; potency means the concentration at half of the fitted maximal effect.

In the assay the target is Polyunsaturated fatty acid lipoxygenase ALOX12 (Homo sapiens) (UniProt P18054). Briefly: Primary qHTS assay for inhibitors of human arachidonate 12S-lipoxygenase (ALOX12): Round 2. The conditions noted are these: purified 12hLO, xylenol orange hydroperoxide absorbance; activity change, negative = inhibition: at 0.00344 µM (top of the series). In outline:
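Purified human 12hLO at 150 nM in 25 mM Hepes, 0.01% Triton X-100, pH 7.0, preincubated 15 min at room temperature with compound. Reaction started with 40 uM arachidonic acid, 30 min at room temperature. Hydroperoxide measured by Fe-xylenol orange, 573/405 nm absorbance ratio.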
For the compound `C=CCn1c(=O)n([C@@H]2O[C@H](CO)[C@@H](O)[C@H]2O)c2nc(N)[nH]c(=O)c21`, the activity change, negative = inhibition turned out to be 5.6%.

Consider `CN1CCN(C2=Nc3ccccc3Sc3ccc(Cl)cc32)CC1`, for which the activity change, negative = inhibition was 1.69%.

Turning to `CCC1=C[C@@H]2CN(C1)Cc1c([nH]c3ccccc13)[C@@](C(=O)OC)(c1cc3c(cc1OC)N(C)[C@H]1[C@@](O)(C(=O)OC)[C@H](OC(C)=O)[C@]4(CC)C=CCN5CC[C@]31[C@@H]54)C2`, the activity change, negative = inhibition is -11.1%.

Regarding `Cc1ccc(NS(=O)(=O)c2ccc(C(=O)NNC(=O)c3ccccc3O)cc2)cc1`, the Potency was active: 44.7 µM.

On to `CS(=O)(=O)Nc1ccc([N+](=O)[O-])cc1Oc1ccccc1`, for which the activity change, negative = inhibition is 18.8%.

For `CCOc1ccccc1C(N)=O`, the activity change, negative = inhibition was -17.1%.

On to `COc1cccc(/C(O)=C2\C(=O)C(=O)N(c3ccccn3)C2c2cccc(Br)c2)c1` (stereo not drawn), for which the Potency is active: 35.5 µM.

As to `NS(=O)(=O)c1ccc(C(=O)O)cc1`, the activity change, negative = inhibition is 29.2%.

For the compound `O=C(O)P(=O)(O)O`, the activity change, negative = inhibition is -50.1%.

In the case of `CCN(CC)CCCC(C)Nc1c2ccc(Cl)cc2nc2ccc(OC)cc12` (stereo not drawn), the activity change, negative = inhibition is -13%.

For `CN(CCOc1ccc(NS(C)(=O)=O)cc1)CCc1ccc(NS(C)(=O)=O)cc1`, the activity change, negative = inhibition was -85.6%.

Take `C#C[C@]1(O)CC[C@H]2[C@@H]3CCc4cc(OC)ccc4[C@H]3CC[C@@]21C`: the activity change, negative = inhibition turned out to be 9.54%.

With `CC1=C(C)C(=O)C(CCCCC#CCCCC#CCO)=C(C)C1=O`, the activity change, negative = inhibition stood at 26.4%.

Consider `O=c1c(-c2ccc(O)cc2)coc2cc(O)cc(O)c12`, for which the activity change, negative = inhibition amounted to 6.99%.

Take `O=C(O)c1ccc(Nc2ncc3c(n2)-c2ccc(Cl)cc2C(c2c(F)cccc2F)=NC3)cc1`: the Potency was active: 15.3 µM.

With `Cc1ccc(S(=O)(=O)NC(=O)NC2CCCCCCC2)cc1`, the activity change, negative = inhibition was -13.6%.

Regarding `COC(=O)[C@H]1[C@H]2C[C@@H]3c4[nH]c5cc(OC)ccc5c4CCN3C[C@H]2C[C@@H](OC(=O)c2cc(OC)c(OC)c(OC)c2)[C@@H]1OC`, the activity change, negative = inhibition was -23.2%.

Regarding `O=C(Nc1cccc2ccccc12)O[C@@H]1CO[C@H]2[C@@H]1OC[C@@H]2NC(=S)Nc1ccc(Cl)cc1`, the Potency was active: 35.5 µM.

On to `COc1cc([C@@H]2c3cc4c(cc3[C@H](O)[C@H]3COC(=O)[C@H]23)OCO4)cc(OC)c1OC`, for which the activity change, negative = inhibition is -0.418%.

As to `OC1(c2ccc(Cl)cc2)CCNCC1`, the activity change, negative = inhibition was -10.3%.

As to `O=C(Nc1nnc(C2=COCCO2)o1)c1ccc(Cl)cc1`, the Potency was active: 39.8 µM.

Consider `CC[C@H]1CN2CCc3cc(OC)c(OC)cc3[C@@H]2C[C@@H]1C[C@H]1NCCc2cc(OC)c(OC)cc21`, for which the activity change, negative = inhibition is -28.9%.

In the case of `CC(C)(CO)[C@@H](O)C(=O)NCCCO`, the activity change, negative = inhibition is 20.7%.

Regarding `c1csc(CNc2ccnc(-c3ccoc3)n2)c1`, the Potency is active: 12.6 µM.

For `CCN(CC)CCNC(=O)c1ccc(NC(C)=O)cc1`, the activity change, negative = inhibition is -53.3%.

In the case of `CC1(CN2CCC(n3c(=O)[nH]c4ccccc43)CC2)OCc2ccccc2-n2cccc21` (stereo not drawn), the activity change, negative = inhibition was found to be 15.8%.

Regarding `O=C(O)c1ccc(OCCN2CCCCC2)cc1`, the activity change, negative = inhibition was determined as 61.8%.

Turning to `NC1(c2ccc(-c3nc4ccn5c(=O)[nH]nc5c4cc3-c3ccccc3)cc2)CCC1`, the activity change, negative = inhibition came to 13.2%.

With `CCCCCCCCCCCCCCCCCC(=O)O`, the activity change, negative = inhibition was -29.4%.

Consider `CC(=O)OC/C=C(C)/C=C/C=C(C)/C=C/C1=C(C)CCCC1(C)C`, for which the activity change, negative = inhibition is -13.7%.

On to `CCOc1cc(NC(C)=O)ccc1C(=O)OC`, for which the activity change, negative = inhibition is 5.42%.

With `COc1ccc(/C(C)=N/NC(=S)Nc2cc(C)ccc2C)cc1`, the Potency was active: 44.7 µM.

Consider `CS(=O)(=O)c1ccc([C@@H](O)[C@@H](CO)NC(=O)C(Cl)Cl)cc1`, for which the activity change, negative = inhibition was -24.8%.

On to `Cc1ccn2c(-c3n[nH]c(=S)n3Cc3ccccc3)c(C)nc2c1`, for which the Potency is active: 8.91 µM.

Consider `CCCCCCCC/C=C\CCCCCCCC(=O)NCc1ccc(O)c(OC)c1`, for which the activity change, negative = inhibition was -4.24%.

Turning to `CCn1c(COc2ccc(Cl)cc2)n[nH]c1=S`, the Potency was active: 15.8 µM.

Regarding `C[C@@H]1CC(=O)NN=C1c1ccc(NN=C(C#N)C#N)cc1`, the activity change, negative = inhibition was -14.3% and -52.2%.

On to `O=c1[nH]c(=O)n([C@H]2CCCO2)cc1F`, for which the activity change, negative = inhibition was -25.8%.

As for `O=C(/C=C/c1ccc(-c2cccc(Cl)c2)o1)c1cc(Cl)ccc1Cl`, the Potency is active: 17.8 µM.

Take `C#C[C@]1(OC(C)=O)CC[C@H]2[C@@H]3CCC4=C[C@@H](OC(C)=O)CC[C@@H]4[C@H]3CC[C@@]21C`: the activity change, negative = inhibition is -12.1%.

For `COC(=O)c1cc(S(N)(=O)=O)ccc1OC`, the activity change, negative = inhibition was 10.1%.

With `C#C[C@]1(O)CC[C@H]2[C@@H]3CCC4=CC(=O)CC[C@@H]4[C@H]3CC[C@@]21C`, the activity change, negative = inhibition was found to be 25.8%.

For the compound `Nc1cc(C(F)(F)F)ccc1S`, the activity change, negative = inhibition stood at 13.9%.

Consider `CO[C@@]1(NC(=O)C(C(=O)O)c2ccc(O)cc2)C(=O)N2C(C(=O)O)=C(CSc3nnnn3C)CO[C@@H]21` (stereo partly drawn), for which the activity change, negative = inhibition was -2.8%.

`COc1ccc(CN(CCN(C)C)c2ccccn2)cc1`: the activity change, negative = inhibition stood at 24%.

As to `CC[n+]1c(/C=C2\Sc3ccccc3N2C)ccc2cccc(C)c21`, the Potency was active: 44.7 µM.

As to `Cc1cc(=O)oc2cc(O)ccc12`, the activity change, negative = inhibition is 22.9%.

On to `CCc1nc(NCCN2CCOCC2)c2oc3ccccc3c2n1`, for which the Potency was active: 14.1 µM.

Consider `O=C(O)Cc1ccc2c(c1)C(=O)c1ccccc1CO2`, for which the activity change, negative = inhibition was found to be 28.3%.

For `Cc1oc(=O)oc1COC(=O)[C@@H]1N2C(=O)[C@@H](NC(=O)[C@H](N)c3ccccc3)[C@H]2SC1(C)C`, the activity change, negative = inhibition was -17.8%.

As to `Cc1ccc(C(=O)C(=O)O)cc1C`, the activity change, negative = inhibition is -2.09%.

Take `CCCCCCCC/C=C/C(=O)O`: the activity change, negative = inhibition is -14.3%.

With `Cc1ccc(S(=O)(=O)NC(=O)NC2CCCC2)cc1`, the activity change, negative = inhibition is -44.7%.

For the compound `FC(F)(F)c1ccccc1-n1ccnc1`, the activity change, negative = inhibition was found to be 17.6%.

Consider `NC(=O)CC[C@@H](N)C(=O)O`, for which the activity change, negative = inhibition was -7.91%.

For `CO/N=C(\C(=O)N[C@@H]1C(=O)N2C(C(=O)O)=C(CSc3nc(=O)c(O)nn3C)CS[C@H]12)c1csc(N)n1`, the activity change, negative = inhibition stood at 16.7%.

In the case of `C[C@]12CCC(=O)C=C1CC[C@@H]1[C@@H]2[C@@H](O)C[C@@]2(C)[C@H]1CC[C@]2(O)C(=O)COC(=O)CCC(=O)O`, the activity change, negative = inhibition is -16.8%.

For `CC(C)(C)NC[C@H](O)COc1nsnc1N1CCOCC1`, the activity change, negative = inhibition is -57.2%.
